PubChem BioAssay AID540276 (National Center for Advancing Translational Sciences (NCATS), 2011)
About 5,400 (1.8%) of roughly 300,000 compounds were called active. Inconclusive means that the source gave no clear call. Such entries were picked first, then a sample of the others. Calls follow the shape of the full dose curve; tested in HEK293 cells. Potencies of inconclusive entries are doubtful fits and often do not repeat.

Assay: qHTS for inhibitors of binding or entry into cells for Marburg Virus
Conditions: Marburg virus pseudotyped entry inhibition, cell reporter; activity change, negative = inhibition: at 37.8 µM (top of the series) unless noted
% is scaled to controls: 0 for no effect and ±100 for the full control effect; potency is read from the fitted curve at half-maximal effect.

Row | SMILES | Potency | activity change, negative = inhibition
1 | O=C1c2cccc3c(N4CCCCC4)ccc(c23)C(=O)N1CCO | inconclusive: 5.17 µM [activator, single point] | 
2 | Cc1cc(C)n(-c2nc(N(c3ccccc3)c3ccccc3)nc(-n3nc(C)cc3C)n2)n1 | inconclusive: 6.51 µM [inhibitor, partial curve, poor fit] | 
3 | CCOc1ccc(CCNC(=O)C2CSC3(C)CCC(=O)N23)cc1OCC (stereo not drawn) |  | inactive: -2.57% [at 46.1 µM]
4 | CCCN1CCN(c2nc(-c3cccs3)nc3ccccc23)CC1 | inconclusive: 29.1 µM [inhibitor, single point] | 
5 | CC(C)NC(=O)NC(=O)COc1ccc(Br)cc1Br | active: 6.51 µM | 
6 | Nc1ccc(S(=O)(=O)NN=Cc2ccccc2[N+](=O)[O-])cc1 | inconclusive: 10 µM [inhibitor, partial curve, poor fit] | 
7 | COc1cccc(C(=O)N(Cc2nc(-c3cccc(C)c3)no2)C(C)C)c1OC | inconclusive: 11.2 µM [inhibitor, partial curve, poor fit] | 
8 | Cc1cc(C)n(CC(=O)N/N=C/c2ccc([N+](=O)[O-])s2)n1 | inconclusive: 14.1 µM [inhibitor, single point] | 
9 | CC(C)=CCN1C(=O)[C@@]2(CC(C)=C[C@@H](COCc3ccccc3)O2)c2ccccc21 |  | inactive: 2.9% [at 14.2 µM]
10 | COc1ccc2[nH]c3c(Cl)ncnc3c2c1 | inconclusive: 25.1 µM [inhibitor, partial curve, poor fit] | 
11 | CCOc1ccc(C2C(C(=O)/C=C/c3ccco3)=C(O)C(=O)N2CCN2CCOCC2)cc1OC (stereo not drawn) |  | inactive: 24.6% [at 46.1 µM]
12 | Cc1ccc(CS(=O)(=O)c2ccc(C(=O)N3CCN(c4ccccn4)CC3)cc2[N+](=O)[O-])cc1 | inconclusive: 35.5 µM [inhibitor, single point] | 
13 | Clc1ccc(C2=CC(c3ccco3)n3ncnc3N2)cc1 (stereo not drawn) |  | inactive: -6.34%
14 | CCOC(=O)c1cnn(-c2nc(-c3cccc(F)c3)cs2)c1C(F)(F)F | inconclusive: 8.2 µM [inhibitor, partial curve, poor fit] | 
15 | Cc1cc(C(=O)NC2CCCc3c2cnn3-c2ccccc2F)nc(C)n1 (stereo not drawn) | inconclusive: 35.5 µM [inhibitor, single point] | 
16 | S=C1N(c2ccccc2)C(c2ccc(Cl)cc2)N2CCCN12 (stereo not drawn) |  | inactive: 10.3%
17 | CCCn1c(SCc2cc(=O)[nH]c3ccccc23)nc2c1c(=O)n(C)c(=O)n2C |  | inactive: -12.6%
18 | O=C(COc1ccccc1)NC1=NCCS1 |  | inactive: 12.2%
19 | COc1ccc(CNC(=O)COC(=O)C2CCC(C(C)(C)C)CC2)cc1 (stereo not drawn) | inconclusive: 29.1 µM [inhibitor, single point] | 
20 | COc1ccc(-n2c(N)c(C(=O)NCc3ccco3)c3nc4ccccc4nc32)c(OC)c1 | inconclusive: 12.6 µM [inhibitor, partial curve, poor fit] | 
21 | N#CC1=C(N)Oc2c(oc(CO)cc2=O)C1c1ccsc1 (stereo not drawn) | inconclusive: 35.5 µM [inhibitor, partial curve, poor fit] | 
22 | Cc1sc(NC(=O)CSc2nnc(COc3ccc(Cl)cc3)n2C)c(C#N)c1C | inconclusive: 29.1 µM [inhibitor, single point] | 

Row | SMILES | Potency | activity change, negative = inhibition
23 | O=C(COC(=O)c1ccc(O)cc1)Nc1ccc2c(c1)OCO2 | inconclusive: 35.5 µM [inhibitor, single point] | 
24 | CC(=O)c1cccc(NC(=O)c2sc3nc4n(c(=O)c3c2C)CCCC4)c1 | inconclusive: 35.5 µM [inhibitor, single point] | 
25 | Cc1cccc(-c2cc3nc4c(c(N5CCCC(O)C5)n3n2)CCC4)c1 (stereo not drawn) | inconclusive: 29.1 µM [inhibitor, single point] | 
26 | O=C(N/N=C/c1sc(=O)n(Cc2ccc(Br)cc2)c1Cl)c1ccco1 | inconclusive: 4.47 µM [inhibitor, full curve, poor fit] | 
27 | COc1ccc(CC2(CO)CCN(Cc3cnn(-c4ccccc4)c3)CC2)cc1 | inconclusive: 35.5 µM [inhibitor, single point] | 
28 | CCCc1cc(=O)[nH]c(SCC(=O)N2CCN(c3ccc(F)cc3)CC2)n1 |  | inactive: -10.2%
29 | CCOC(=O)Cc1csc(NC(=O)c2cccc(Cl)c2)n1 | inconclusive: 35.5 µM [inhibitor, single point] | 
30 | NNC(=O)c1cccc(COc2ccc(Br)cc2)c1 | inconclusive: 8.91 µM [inhibitor, partial curve, poor fit] | 
31 | CN1CCN(Cc2nc3ccccc3c(=O)n2Cc2nc(-c3ccc([N+](=O)[O-])cc3)cs2)CC1 | inconclusive: 35.5 µM [inhibitor, single point] | 
32 | CCOc1ccccc1NC(=O)COc1ccc2c(c1)OCO2 | inconclusive: 35.5 µM [activator, single point] | 
33 | CC1=C(C(=O)N2CCOCC2)C(c2ccc(-c3ccccc3)cc2)NC(=S)N1 (stereo not drawn) | inconclusive: 0.112 µM [inhibitor, full curve, poor fit] | 
34 | S=C(c1ccc(-c2cccc(Cl)c2)o1)N1CCCCC1 |  | inactive: -25.9% [at 46.1 µM]
35 | CCOc1cc(C2c3c(-c4cc(C)ccc4O)n[nH]c3C(=O)N2CCCOC(C)C)ccc1O (stereo not drawn) | inconclusive: 35.5 µM [inhibitor, single point] | 
36 | CCOC(=O)c1c(C)n(CC(O)CN(C)C)c2cc(Br)c(OC)cc12 (stereo not drawn) | inconclusive: 25.1 µM [inhibitor, single point] | 
37 | CCn1cnc2sc(-c3ccccc3)cc2c1=O | inconclusive: 20 µM [inhibitor, single point] | 
38 | CCN1C(=NCCc2cccnc2)NC(c2ccccc2)C(C(=O)OC)=C1C (stereo not drawn) | inconclusive: 0.188 µM [inhibitor, partial curve, poor fit] | 
39 | CS(=O)(=O)N1CCC(C(=O)NCc2ccncc2)CC1 |  | inactive: -9.78%
40 | COc1ccc(N=Cc2c(O)ccc3ccccc23)cc1 | inconclusive: 35.5 µM [inhibitor, single point] | 
41 | CC(C)CC(=O)Nc1ccc2nc(SCC(=O)N3CCc4ccccc43)sc2c1 |  | inactive: 1.61% [at 46.1 µM]
42 | CCN(CC(=O)NCc1ccc(Cl)cc1)C(=O)CSc1ccccc1F | inconclusive: 0.708 µM [inhibitor, single point] | 
43 | CCOC(=O)c1c(-c2ccccc2)csc1NC(=O)C(C)NCCCN1CCOCC1 (stereo not drawn) | inconclusive: 7.94 µM [inhibitor, partial curve, poor fit] | 

3 entries from above, reformatted.
CCOc1ccccc1NC(=O)COc1ccc2c(c1)OCO2
  Potency: inconclusive: 35.5 µM [activator, single point]
CC1=C(C(=O)N2CCOCC2)C(c2ccc(-c3ccccc3)cc2)NC(=S)N1 (stereo not drawn)
  Potency: inconclusive: 0.112 µM [inhibitor, full curve, poor fit]
S=C(c1ccc(-c2cccc(Cl)c2)o1)N1CCCCC1
  activity change, negative = inhibition: inactive: -25.9% [at 46.1 µM]
